Results as given in PMC8844045, “Dynamic FMR1 granule phase switch instructed by m6A modification contributes to maternal RNA decay”.
These are yes or no findings as the source states them, for the method shown. For some assays here: In cells and extracts the contact can be indirect. Some binding calls cover weakened binding; strength is not graded here.

Chains of the proteins cited; added tags and fusions are not shown.
UniProt Q9NFU0: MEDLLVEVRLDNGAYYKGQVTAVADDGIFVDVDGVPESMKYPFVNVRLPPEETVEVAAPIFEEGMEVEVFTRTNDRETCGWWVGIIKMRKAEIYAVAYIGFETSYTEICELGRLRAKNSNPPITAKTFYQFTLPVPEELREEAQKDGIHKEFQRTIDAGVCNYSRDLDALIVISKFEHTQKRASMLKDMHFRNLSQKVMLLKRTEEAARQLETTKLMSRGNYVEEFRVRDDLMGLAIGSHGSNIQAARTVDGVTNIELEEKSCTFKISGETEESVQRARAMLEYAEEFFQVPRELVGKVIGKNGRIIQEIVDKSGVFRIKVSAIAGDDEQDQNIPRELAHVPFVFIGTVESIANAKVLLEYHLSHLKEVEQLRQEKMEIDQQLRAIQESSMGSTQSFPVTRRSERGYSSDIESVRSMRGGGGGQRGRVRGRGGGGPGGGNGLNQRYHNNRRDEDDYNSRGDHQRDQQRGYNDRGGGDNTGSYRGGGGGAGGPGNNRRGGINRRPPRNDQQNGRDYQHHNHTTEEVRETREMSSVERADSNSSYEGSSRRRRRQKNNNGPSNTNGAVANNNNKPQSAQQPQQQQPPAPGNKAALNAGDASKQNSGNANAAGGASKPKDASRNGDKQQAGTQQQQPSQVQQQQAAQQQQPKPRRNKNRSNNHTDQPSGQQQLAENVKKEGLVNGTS
UniProt P21187: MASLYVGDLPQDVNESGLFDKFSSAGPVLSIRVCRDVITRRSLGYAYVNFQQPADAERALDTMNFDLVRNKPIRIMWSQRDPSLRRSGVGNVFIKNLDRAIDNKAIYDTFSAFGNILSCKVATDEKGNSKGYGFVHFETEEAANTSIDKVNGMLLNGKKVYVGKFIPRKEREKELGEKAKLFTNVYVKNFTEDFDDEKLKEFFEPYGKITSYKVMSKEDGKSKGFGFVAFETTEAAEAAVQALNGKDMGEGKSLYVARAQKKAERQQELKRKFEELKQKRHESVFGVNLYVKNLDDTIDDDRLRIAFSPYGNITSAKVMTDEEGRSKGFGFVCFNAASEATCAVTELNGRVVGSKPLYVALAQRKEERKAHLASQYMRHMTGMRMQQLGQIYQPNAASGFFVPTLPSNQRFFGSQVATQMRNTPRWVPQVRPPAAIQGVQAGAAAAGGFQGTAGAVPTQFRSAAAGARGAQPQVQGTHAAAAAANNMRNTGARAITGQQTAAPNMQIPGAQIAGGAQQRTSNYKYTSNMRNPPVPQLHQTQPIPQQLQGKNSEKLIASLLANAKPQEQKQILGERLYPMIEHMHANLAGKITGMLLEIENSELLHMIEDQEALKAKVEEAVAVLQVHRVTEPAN

Experiments:
[1] = biological target: Drosophila Fragile X mental-retardation protein (FMR1) (Drosophila (endogenous in embryos)) (UniProt Q9NFU0); test: SDD-AGE (semi-denaturing detergent agarose gel electrophoresis); crude extracts of wild-type embryos at 0–1, 2–4 and 5–6-h stages; 1.5% agarose gel with 0.1% SDS, immunoblot for FMR1; RNase A treatment of the 2–4-h lysate markedly reduced the high-molecular-weight signal
[2] = biological target: Drosophila Fragile X mental-retardation protein (FMR1) (Drosophila (endogenous in embryos)) (UniProt Q9NFU0); test: co-IP; total lysates of 2–4-h embryos (wild type; also mettl3–mettl14 double maternal mutants, where the association was markedly reduced) immunoprecipitated with anti-Drosophila FMR1 antibody or IgG, protein A/G agarose, 4 °C; western blot for pAbp

Row | binding [1] | binding [2] | Substance
1 | binds | – | Drosophila Fragile X mental-retardation protein (FMR1) (from UniProt Q9NFU0 1-684)
2 | – | binds | poly(A)-binding protein (pAbp) (from UniProt P21187 1-634)
